Results are given in words; binding and its absence hold for the method and conditions named. For some of these results: Binding seen in cells or lysates may run through a third protein. Some results given as binding are weak or reduced against the parent protein; the word gives no strength.

Chains of the proteins cited; added tags and fusions are not shown. Lines headed by an entry give the natural chain unless they say otherwise; changes in a name come on top.
UniProt P06730: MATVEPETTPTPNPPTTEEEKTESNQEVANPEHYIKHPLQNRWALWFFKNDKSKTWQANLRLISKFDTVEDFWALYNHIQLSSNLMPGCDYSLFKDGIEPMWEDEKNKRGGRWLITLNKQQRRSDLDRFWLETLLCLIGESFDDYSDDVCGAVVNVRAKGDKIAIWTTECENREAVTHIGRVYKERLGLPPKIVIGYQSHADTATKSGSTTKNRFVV

Experiment [1] concerns the target eukaryotic initiation factor 4E (EIF4E) (human (endogenous in HT-1080 and Calu-1)), P06730. Nature of the experiment: co-IP; anti-EIF4E antibody (clone 5D11) with protein A agarose beads on cleared RIPA lysates of HT-1080 or Calu-1 cells, 4 °C, immunoblot of partners; cells untreated or treated with RSL3, 4EGI-1, 4E1RCat, deferoxamine, 20% FBS, staurosporine, or with EIF4G1 knock-down. As to conditions: remark: other sources report otherwise. (A western blot detects proteins with antibodies after separation by electrophoresis.)

Experiment [2] has as its target eukaryotic initiation factor 4E (EIF4E) (human (endogenous in HT-1080 and Calu-1)) (UniProt P06730). Described as above.
For another experiment, the target named is His-EIF4E bait protein (UniProt P06730). Nature of the experiment: pull-down; 10 µg His-EIF4E bait on MagZ binding particles; about 2 µg prey protein added, 60 min; washes, SDS-PAGE; both purified.
Another experiment deals with EIF4E-S209A mutant (UniProt P06730). Nature of the experiment: co-IP; immunoprecipitation of the EIF4E-ALDH1B1 complex in EIF4E-knockdown cells re-expressing EIF4E mutants, treated with RSL3 (0.5 μM, 4 h).
In experiment [3] the target is eukaryotic initiation factor 4E (EIF4E) (human (endogenous in HT-1080 and Calu-1)) (UniProt P06730). Kind of experiment: co-IP; immunoprecipitation of the EIF4E-ALDH1B1 complex in membrane protein extracts of Calu-1 cells treated with RSL3 (0.5 μM) and/or deferoxamine (100 μM) for 4 h.

B1: EIF4G2, P78344 1-907 (protein)
chain: MESAIAEGGASRFSASSGGGGSRGAPQHYPKTAGNSEFLGKTPGQNAQKWIPARSTRRDDNSAANNSANEKERHDAIFRKVRGILNKLTPEKFDKLCLELLNVGVESKLILKGVILLIVDKALEEPKYSSLYAQLCLRLAEDAPNFDGPAAEGQPGQKQSTTFRRLLISKLQDEFENRTRNVDVYDKRENPLLPEEEEQRAIAKIKMLGNIKFIGELGKLDLIHESILHKCIKTLLEKKKRVQLKDMGEDLECLCQIMRTVGPRLDHERAKSLMDQYFARMCSLMLSKELPARIRFLLQDTVELREHHWVPRKAFLDNGPKTINQIRQDAVKDLGVFIPAPMAQGMRSDFFLEGPFMPPRMKMDRDPLGGLADMFGQMPGSGIGTGPGVIQDRFSPTMGRHRSNQLFNGHGGHIMPPTQSQFGEMGGKFMKSQGLSQLYHNQSQGLLSQLQGQSKDMPPRFSKKGQLNADEISLRPAQSFLMNKNQVPKLQPQITMIPPSAQPPRTQTPPLGQTPQLGLKTNPPLIQEKPAKTSKKPPPSKEELLKLTETVVTEYLNSGNANEAVNGVREMRAPKHFLPEMLSKVIILSLDRSDEDKEKASSLISLLKQEGIATSDNFMQAFLNVLDQCPKLEVDIPLVKSYLAQFAARAIISELVSISELAQPLESGTHFPLFLLCLQQLAKLQDREWLTELFQQSKVNMQKMLPEIDQNKDRMLEILEGKGLSFLFPLLKLEKELLKQIKLDPSPQTIYKWIKDNISPKLHVDKGFVNILMTSFLQYISSEVNPPSDETDSSSAPSKEQLEQEKQLLLSFKPVMQKFLHDHVDLQVSALYALQVHCYNSNFPKGMLLRFFVHFYDMEIIEEEAFLAWKEDITQEFPGKGKALFQVNQWLTWLETAEEEESEEEAD
Take B1: the binding entry in experiment [1] is given as “binds”.

B2: aldehyde dehydrogenase 3 family member A1 (ALDH3A1) (enzyme, UniProt P30838 1-453)
chain: MSKISEAVKRARAAFSSGRTRPLQFRIQQLEALQRLIQEQEQELVGALAADLHKNEWNAYYEEVVYVLEEIEYMIQKLPEWAADEPVEKTPQTQQDELYIHSEPLGVVLVIGTWNYPFNLTIQPMVGAIAAGNSVVLKPSELSENMASLLATIIPQYLDKDLYPVINGGVPETTELLKERFDHILYTGSTGVGKIIMTAAAKHLTPVTLELGGKSPCYVDKNCDLDVACRRIAWGKFMNSGQTCVAPDYILCDPSIQNQIVEKLKKSLKEFYGEDAKKSRDYGRIISARHFQRVMGLIEGQKVAYGGTGDAATRYIAPTILTDVDPQSPVMQEEIFGPVLPIVCVRSLEEAIQFINQREKPLALYMFSSNDKVIKKMIAETSSGGVAANDVIVHITLHSLPFGGVGNSGMGSYHGKKSFETFSHRRSCLVRPLMNDEGLKVRYPPSPAKMTQH
As for B2, the binding entry in experiment [2] is reported as “no binding”.

B3: ALDH3A1 recombinant protein (enzyme, UniProt P30838 1-453)
chain: MSKISEAVKRARAAFSSGRTRPLQFRIQQLEALQRLIQEQEQELVGALAADLHKNEWNAYYEEVVYVLEEIEYMIQKLPEWAADEPVEKTPQTQQDELYIHSEPLGVVLVIGTWNYPFNLTIQPMVGAIAAGNSVVLKPSELSENMASLLATIIPQYLDKDLYPVINGGVPETTELLKERFDHILYTGSTGVGKIIMTAAAKHLTPVTLELGGKSPCYVDKNCDLDVACRRIAWGKFMNSGQTCVAPDYILCDPSIQNQIVEKLKKSLKEFYGEDAKKSRDYGRIISARHFQRVMGLIEGQKVAYGGTGDAATRYIAPTILTDVDPQSPVMQEEIFGPVLPIVCVRSLEEAIQFINQREKPLALYMFSSNDKVIKKMIAETSSGGVAANDVIVHITLHSLPFGGVGNSGMGSYHGKKSFETFSHRRSCLVRPLMNDEGLKVRYPPSPAKMTQH
Consider B3, for which the binding result with His-EIF4E bait protein is on record as “no binding (tested: about 2 µg ALDH3A1 protein added)”.

B4: aldehyde dehydrogenase 1 family member B1 (ALDH1B1) (enzyme, UniProt P30837 18-517)
chain: RYSSAAALPSPILNPDIPYNQLFINNEWQDAVSKKTFPTVNPTTGEVIGHVAEGDRADVDRAVKAAREAFRLGSPWRRMDASERGRLLNRLADLVERDRVYLASLETLDNGKPFQESYALDLDEVIKVYRYFAGWADKWHGKTIPMDGQHFCFTRHEPVGVCGQIIPWNFPLVMQGWKLAPALATGNTVVMKVAEQTPLSALYLASLIKEAGFPPGVVNIITGYGPTAGAAIAQHVDVDKVAFTGSTEVGHLIQKAAGDSNLKRVTLELGGKSPSIVLADADMEHAVEQCHEALFFNMGQCCCAGSRTFVEESIYNEFLERTVEKAKQRKVGNPFELDTQQGPQVDKEQFERVLGYIQLGQKEGAKLLCGGERFGERGFFIKPTVFGGVQDDMRIAKEEIFGPVQPLFKFKKIEEVVERANNTRYGLAAAVFTRDLDKAMYFTQALQAGTVWVNTYNIVTCHTPFGGFKESGNGRELGEDGLKAYTEVKTVTIKVPQKNS
Turning to B4, the binding result (in the experiment with EIF4E-S209A mutant; in experiment [3]; in experiment [2]) was “binds” each time.

B5: ALDH1B1 recombinant protein (enzyme, UniProt P30837 18-517)
chain: RYSSAAALPSPILNPDIPYNQLFINNEWQDAVSKKTFPTVNPTTGEVIGHVAEGDRADVDRAVKAAREAFRLGSPWRRMDASERGRLLNRLADLVERDRVYLASLETLDNGKPFQESYALDLDEVIKVYRYFAGWADKWHGKTIPMDGQHFCFTRHEPVGVCGQIIPWNFPLVMQGWKLAPALATGNTVVMKVAEQTPLSALYLASLIKEAGFPPGVVNIITGYGPTAGAAIAQHVDVDKVAFTGSTEVGHLIQKAAGDSNLKRVTLELGGKSPSIVLADADMEHAVEQCHEALFFNMGQCCCAGSRTFVEESIYNEFLERTVEKAKQRKVGNPFELDTQQGPQVDKEQFERVLGYIQLGQKEGAKLLCGGERFGERGFFIKPTVFGGVQDDMRIAKEEIFGPVQPLFKFKKIEEVVERANNTRYGLAAAVFTRDLDKAMYFTQALQAGTVWVNTYNIVTCHTPFGGFKESGNGRELGEDGLKAYTEVKTVTIKVPQKNS
For B5, in the experiment with His-EIF4E bait protein, the binding entry is recorded as “binds”.

Source of the values: publication PMC9588786.
